Assay results: the supplement of paper PMC8728848
Some of the results follow.

Tests used:
Assay in all cases: glycan array binding signal (z-score within array); higher = stronger binding
Conditions in all cases: glycan notation: IUPAC condensed, linker removed
[1] = biological target: Gal(b1-4)GlcNAc(b1-3)Gal(b1-4)GlcNAc(b1-2)[Gal(b1-4)GlcNAc(b1-3)Gal(b1-4)GlcNAc(b1-6)]Man(a1-6)[Gal(b1-4)GlcNAc(b1-3)Gal(b1-4)GlcNAc(b1-2)Man(a1-3)]Man(b1-4)GlcNAc(b1-4)[Fuc(a1-6)]GlcNAc
Outline: (§1)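 The binding signal is a Z-score computed within each array and averaged over linkers. Arrays of the same protein sequence at different concentrations or buffers were also averaged together. Data originate from 3228 arrays in the Consortium for Functional Glycomics database, kept only where the protein sequence was available.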

[2] = biological target: Gal(b1-4)GlcNAc(b1-3)Gal(b1-4)GlcNAc(b1-3)Gal(b1-4)GlcNAc
Outline: as §1

[3] = biological target: Gal(b1-4)GlcNAc(b1-3)Gal(b1-4)GlcNAc(b1-3)Gal(b1-4)GlcNAc(b1-2)Man(a1-3)[Gal(b1-4)GlcNAc(b1-3)Gal(b1-4)GlcNAc(b1-3)Gal(b1-4)GlcNAc(b1-2)Man(a1-6)]Man(b1-4)GlcNAc(b1-4)GlcNAc
Outline: as §1

[4] = biological target: Gal(b1-4)GlcNAc(b1-3)Gal(b1-4)GlcNAc(b1-3)Gal(b1-4)GlcNAc(b1-2)Man(a1-3)[Gal(b1-4)GlcNAc(b1-3)Gal(b1-4)GlcNAc(b1-3)Gal(b1-4)GlcNAc(b1-2)Man(a1-6)]Man(b1-4)GlcNAc(b1-4)[Fuc(a1-6)]GlcNAc
Outline: as §1

[5] = biological target: Gal(b1-4)GlcNAc(b1-3)Gal(b1-4)GlcNAc(b1-3)Gal(b1-4)GlcNAc(b1-2)[Gal(b1-4)GlcNAc(b1-3)Gal(b1-4)GlcNAc(b1-3)Gal(b1-4)GlcNAc(b1-6)]Man(a1-6)[Gal(b1-4)GlcNAc(b1-3)Gal(b1-4)GlcNAc(b1-3)Gal(b1-4)GlcNAc(b1-2)Man(a1-3)]Man(b1-4)GlcNAc(b1-4)[Fuc(a1-6)]GlcNAc
Outline: as §1

[6] = biological target: Gal(b1-4)GlcNAc(b1-3)Gal(b1-4)GlcNAc(b1-3)Gal(b1-4)GlcNAc(b1-3)Gal(b1-4)GlcNAc(b1-2)Man(a1-3)[Gal(b1-4)GlcNAc(b1-3)Gal(b1-4)GlcNAc(b1-3)Gal(b1-4)GlcNAc(b1-3)Gal(b1-4)GlcNAc(b1-2)Man(a1-6)]Man(b1-4)GlcNAc(b1-4)GlcNAc
Outline: as §1

[7] = biological target: Gal(b1-4)GlcNAc(b1-3)Gal(b1-4)GlcNAc(b1-3)Gal(b1-4)GlcNAc(b1-3)Gal(b1-4)GlcNAc(b1-2)Man(a1-3)[Gal(b1-4)GlcNAc(b1-3)Gal(b1-4)GlcNAc(b1-3)Gal(b1-4)GlcNAc(b1-3)Gal(b1-4)GlcNAc(b1-2)Man(a1-6)]Man(b1-4)GlcNAc(b1-4)[Fuc(a1-6)]GlcNAc
Outline: as §1

[8] = biological target: Gal(b1-4)GlcNAc(b1-3)Gal(b1-4)GlcNAc(b1-3)Gal(b1-4)GlcNAc(b1-3)Gal(b1-4)GlcNAc(b1-2)[Gal(b1-4)GlcNAc(b1-3)Gal(b1-4)GlcNAc(b1-3)Gal(b1-4)GlcNAc(b1-3)Gal(b1-4)GlcNAc(b1-6)]Man(a1-6)[Gal(b1-4)GlcNAc(b1-3)Gal(b1-4)GlcNAc(b1-3)Gal(b1-4)GlcNAc(b1-3)Gal(b1-4)GlcNAc(b1-2)Man(a1-3)]Man(b1-4)GlcNAc(b1-4)[Fuc(a1-6)]GlcNAc
Outline: as §1

[9] = biological target: Gal(b1-4)GlcNAc(b1-3)Gal(b1-4)GlcNAc(b1-3)Gal(b1-4)GlcNAc(b1-3)Gal(b1-4)GlcNAc(b1-3)Gal(b1-4)GlcNAc(b1-2)Man(a1-3)[Gal(b1-4)GlcNAc(b1-3)Gal(b1-4)GlcNAc(b1-3)Gal(b1-4)GlcNAc(b1-3)Gal(b1-4)GlcNAc(b1-3)Gal(b1-4)GlcNAc(b1-2)Man(a1-6)]Man(b1-4)GlcNAc(b1-4)GlcNAc
Outline: as §1

[10] = biological target: Gal(b1-4)GlcNAc(b1-3)Gal(b1-4)GlcNAc(b1-3)Gal(b1-4)GlcNAc(b1-3)Gal(b1-4)GlcNAc(b1-3)Gal(b1-4)GlcNAc(b1-2)Man(a1-3)[Gal(b1-4)GlcNAc(b1-3)Gal(b1-4)GlcNAc(b1-3)Gal(b1-4)GlcNAc(b1-3)Gal(b1-4)GlcNAc(b1-3)Gal(b1-4)GlcNAc(b1-2)Man(a1-6)]Man(b1-4)GlcNAc(b1-4)[Fuc(a1-6)]GlcNAc
Outline: as §1

[11] = biological target: Gal(b1-4)GlcNAc(b1-3)Gal(b1-4)GlcNAc(b1-3)Gal(b1-4)GlcNAc(b1-3)Gal(b1-4)GlcNAc(b1-3)Gal(b1-4)GlcNAc(b1-2)[Gal(b1-4)GlcNAc(b1-3)Gal(b1-4)GlcNAc(b1-3)Gal(b1-4)GlcNAc(b1-3)Gal(b1-4)GlcNAc(b1-3)Gal(b1-4)GlcNAc(b1-6)]Man(a1-6)[Gal(b1-4)GlcNAc(b1-3)Gal(b1-4)GlcNAc(b1-3)Gal(b1-4)GlcNAc(b1-3)Gal(b1-4)GlcNAc(b1-3)Gal(b1-4)GlcNAc(b1-2)Man(a1-3)]Man(b1-4)GlcNAc(b1-4)[Fuc(a1-6)]GlcNAc
Outline: as §1

[12] = biological target: Gal(b1-4)GlcNAc(b1-3)Gal(b1-4)GlcNAc(b1-3)Gal(b1-4)GlcNAc(b1-3)Gal(b1-4)GlcNAc(b1-3)Gal(b1-4)GlcNAc(b1-3)Gal(b1-4)GlcNAc(b1-2)Man(a1-3)[Gal(b1-4)GlcNAc(b1-3)Gal(b1-4)GlcNAc(b1-3)Gal(b1-4)GlcNAc(b1-3)Gal(b1-4)GlcNAc(b1-3)Gal(b1-4)GlcNAc(b1-3)Gal(b1-4)GlcNAc(b1-2)Man(a1-6)]Man(b1-4)GlcNAc(b1-4)GlcNAc
Outline: as §1

[13] = biological target: Gal(b1-4)GlcNAc(b1-3)Gal(b1-4)GlcNAc(b1-3)GalNAc
Outline: as §1

[14] = biological target: Gal(b1-4)GlcNAc(b1-3)Gal(b1-4)GlcNAc(b1-3)[Gal(b1-4)GlcNAc(b1-3)Gal(b1-4)GlcNAc(b1-6)]GalNAc
Outline: as §1

[15] = biological target: Gal(b1-4)GlcNAc(b1-3)Gal(b1-4)GlcNAc(b1-6)[Gal(b1-3)]GalNAc
Outline: as §1

[16] = biological target: Gal(b1-4)GlcNAc(b1-3)Gal(b1-4)[Fuc(a1-3)]GlcNAc(b1-3)Gal(b1-4)[Fuc(a1-3)]GlcNAc
Outline: as §1

[17] = biological target: Gal(b1-4)GlcNAc(b1-3)GalNAc
Outline: as §1

[18] = biological target: Gal(b1-4)GlcNAc(b1-3)[Fuc(a1-3)GlcNAc(b1-6)]Gal(b1-4)Glc
Outline: as §1

[19] = biological target: Gal(b1-4)GlcNAc(b1-3)[Gal(b1-4)GlcNAc(b1-6)]Gal(b1-4)GlcNAc
Outline: as §1

[20] = biological target: Gal(b1-4)GlcNAc(b1-3)[GlcNAc(b1-6)]Gal(b1-4)GlcNAc
Outline: as §1

[21] = biological target: Gal(b1-4)GlcNAc(b1-6)Gal(b1-4)GlcNAc
Outline: as §1

[22] = biological target: Gal(b1-4)GlcNAc(b1-6)GalNAc
Outline: as §1

[23] = biological target: Gal(b1-4)GlcNAc(b1-6)[Gal(b1-3)]GalNAc
Outline: as §1

[24] = biological target: Gal(b1-4)GlcNAc(b1-6)[Gal(b1-4)GlcNAc(b1-3)]GalNAc
Outline: as §1

Gal(b1-4)GlcNAc6P = biological target: Gal(b1-4)GlcNAc6P
Outline: as §1

Gal(b1-6)Gal = biological target: Gal(b1-6)Gal
Outline: as §1

Gal3S(b1-3)GalNAc = biological target: Gal3S(b1-3)GalNAc
Outline: as §1

Gal3S(b1-3)GlcNAc = biological target: Gal3S(b1-3)GlcNAc
Outline: as §1

[25] = biological target: Gal3S(b1-3)[Fuc(a1-4)]GlcNAc
Outline: as §1

Gal3S(b1-4)Glc = biological target: Gal3S(b1-4)Glc
Outline: as §1

B1: Blon2355mut (Bifidobacterium longum) (protein)
chain: MVQEPTLEWHVIPEPTNVEPLVGTCSLPLSGTVVEQRGADDAEAVFARQLVDDIKRVCGGRWQVASGEVQREVTLRTSPSLDDWSYVLEVSPDGVVITGSGFEGVRDGVQTLRQIIRQIGLTIPCMVIRDRPAFSTRGYYLDVTRGRVPSMAWLKSWVDRLCFYKYNQFQLYIEHTFQFNGLSEVWRGADPLTSSDILELDSYCAARGIELVPSVSTFGHHYTALRTRQLRDLGEFPEDADRPFSLIERMTHHTLNITDERSYEFSTSLIDELMPLFRSRKFNICANETFDLGKGRSKQESAKRGVGAMYADFVERLCRHVDDRGHDVMVWADVALEHPEIIDTLPKNITWLNWQYEPNVDDGTTAALADAGATQMVCPAVWCWNALIPRIDDAWNNITRMARHGRAHDVSGMLVTDWGDFGHVNDPRMSVPGMIFGAQQSWNPDAELSEVDMLSRISTIEYGDHTGSVVGALRGASAKGGFSWSDLVTYLELDDGRGGCNTEIVRVMGCLEAYRNDLPQSGQARLADARVSMLRTLRDSILAGRELNGKLDDAAKDITQLLRVAGDPSSAAVWSLAIDGQRLLNRVGLALLAAHGVVRQDEAGIDAAKLADELECWTEQYSRLWHEVSRQSELARIQHVVWRAADVLRSI
[1]
  glycan array binding signal (z-score): -1.16
[2]
  glycan array binding signal (z-score): -0.668
[3]
  glycan array binding signal (z-score): -0.132
[4]
  glycan array binding signal (z-score): 0.51
[5]
  glycan array binding signal (z-score): 0.359
[6]
  glycan array binding signal (z-score): -0.132
[7]
  glycan array binding signal (z-score): 0.064
[8]
  glycan array binding signal (z-score): 0.815
[9]
  glycan array binding signal (z-score): 1.84
[10]
  glycan array binding signal (z-score): 1.81
[11]
  glycan array binding signal (z-score): 1.08
[12]
  glycan array binding signal (z-score): -0.457
[13]
  glycan array binding signal (z-score): 1.86
[14]
  glycan array binding signal (z-score): 1.95
[15]
  glycan array binding signal (z-score): 0.259
[16]
  glycan array binding signal (z-score): 0.697
[17]
  glycan array binding signal (z-score): -0.592
[18]
  glycan array binding signal (z-score): 0.724
[19]
  glycan array binding signal (z-score): 0.314
[20]
  glycan array binding signal (z-score): -0.722
[21]
  glycan array binding signal (z-score): -0.724
[22]
  glycan array binding signal (z-score): 0.284
[23]
  glycan array binding signal (z-score): 0.075
[24]
  glycan array binding signal (z-score): -0.034
Gal(b1-4)GlcNAc6P
  glycan array binding signal (z-score): 0.435
Gal(b1-6)Gal
  glycan array binding signal (z-score): -0.785
Gal3S(b1-3)GalNAc
  glycan array binding signal (z-score): -0.232
Gal3S(b1-3)GlcNAc
  glycan array binding signal (z-score): 0.551
[25]
  glycan array binding signal (z-score): 0.1
Gal3S(b1-4)Glc
  glycan array binding signal (z-score): 2.74
